Data as given in PubChem BioAssay AID652243 (Drosophila RNAi Screening Center, 2013).
Screen: 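Fly genes required for human androgen receptor driven transcription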 (primary screen). Cells: Drosophila S2R+ cells. Reagents: long dsRNA against Drosophila genes. Duration: 72 h (48 h, then 24 h hormone). Treatment: synthetic androgen R1881 at 10 nM for 24 h. Measurement: 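Firefly light from an androgen-responsive reporter and Renilla control light per well, raw and unnormalised, for each of two replicates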. Scale: firefly reporter light: higher = more light from androgen-responsive reporter; Renilla control light: higher = more constitutive control signal (cell number, transfection). Active means: 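Hit when the log firefly-to-Renilla ratio dropped or increased by a fixed fold versus the mean of GFP or LacZ controls across duplicate plates; lowering cut given as 1.5 and as 3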. Calls: active = hit: reporter lowered or raised; inactive = no hit.
The screen tested about 24,000 reagents; below is a random part of those that have a named target and a result. Of all reagents, 246 (1%) were called active. 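Plates not normalised; calls are printed but the firefly/Renilla ratio behind them is not deposited; fold cut for lowering reported inconsistently.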 Raw values vary from plate to plate and are shown uncorrected. Names joined by + are all predicted targets of the reagent. Reagent sequences are not shown. The record does not give: the amount of reagent.

| gene | amplicon | firefly reporter light, replicate 1 | firefly reporter light, replicate 2 | Renilla control light, replicate 1 | Renilla control light, replicate 2 | call |
| --- | --- | --- | --- | --- | --- | --- |
| Su(P) (Suppressor of ref(2)P sterility) | DRSC11291 | 2.29e5 | 1.73e5 | 2.12e6 | 1.83e6 | inactive |
| Su(P) (Suppressor of ref(2)P sterility) | DRSC29947 | 5.98e5 | 4.60e5 | 1.38e6 | 1.21e6 | inactive |
| CG17931 + CG42446 | DRSC15293 | 2.36e5 | 1.89e5 | 3.00e6 | 3.04e6 | inactive |
| Mtl (Mig-2-like) | DRSC16751 | 2.61e5 | 2.16e5 | 2.60e6 | 3.26e6 | inactive |
| CG7519 | DRSC11834 | 2.47e5 | 2.94e5 | 2.05e6 | 2.64e6 | inactive |
| CG11808 | DRSC06088 | 6.64e5 | 7.89e5 | 1.02e6 | 1.19e6 | inactive |
| CG11808 | DRSC27380 | 4.01e5 | 3.27e5 | 7.72e5 | 7.69e5 | inactive |
| CG30487 | DRSC05377 | 1.10e5 | 1.36e5 | 1.96e5 | 2.94e5 | inactive |
| CG15570 | DRSC18058 | 2.44e5 | 3.66e5 | 2.41e6 | 2.21e6 | inactive |
| Atx2 (Ataxin-2) | DRSC23010 | 5.58e5 | 5.46e5 | 1.29e6 | 1.33e6 | inactive |
| CG4456 + Hsp22 | DRSC11187 | 2.67e5 | 1.43e5 | 2.82e6 | 1.30e6 | inactive |
| CG4456 + Hsp22 | DRSC11192 | 8.31e5 | 5.14e5 | 2.22e6 | 1.83e6 | inactive |
| mRpL10 (mitochondrial ribosomal protein L10) | DRSC00312 | 5.77e5 | 6.23e5 | 3.34e6 | 1.48e6 | inactive |
| Alg-2 (Apoptosis-linked gene-2) | DRSC07799 | 27550 | 39264 | 8.87e5 | 1.01e6 | inactive |
| CG15343 | DRSC18028 | 3.65e5 | 4.14e5 | 3.79e6 | 3.31e6 | inactive |
| CG14567 | DRSC11728 | 2.79e5 | 2.17e5 | 2.40e6 | 1.63e6 | inactive |
| Ssk (Snakeskin) | DRSC10756 | 83790 | 71014 | 5.30e5 | 3.83e5 | inactive |
| CG18577 | DRSC15352 | 1.21e5 | 1.56e5 | 1.73e6 | 1.69e6 | inactive |
| CG12926 | DRSC06239 | 5.57e5 | 5.46e5 | 2.48e6 | 2.15e6 | inactive |
| CG12926 | DRSC21930 | 1.02e6 | 9.80e5 | 1.41e6 | 1.44e6 | inactive |
| CG34189 | DRSC38723 | 1.06e6 | 7.78e5 | 1.45e6 | 2.00e6 | inactive |
| Ets96B | DRSC16127 | 1.40e5 | 1.99e5 | 1.52e6 | 2.70e6 | inactive |
| Ets96B | DRSC27110 | 5.33e5 | 5.51e5 | 5.20e5 | 5.19e5 | inactive |
| CG2991 | DRSC00559 | 7.30e5 | 6.72e5 | 1.32e6 | 1.04e6 | inactive |
| CG2991 | DRSC26300 | 2.27e5 | 2.80e5 | 6.08e5 | 6.14e5 | inactive |

Single entries from the entries so far:
Ets96B [DRSC27110], firefly reporter light, replicate 1 = 5.33e5
Value of Atx2 (Ataxin-2) [DRSC23010] in “Renilla control light, replicate 2”: 1.33e6
Entry of CG2991 [DRSC26300] under “firefly reporter light, replicate 1”: 2.27e5
Value of CG4456 + Hsp22 [DRSC11192] in “call”: inactive
